Experimental data as given in patent US10029022B2, “Nuclear medicine diagnostic imaging agent” (Kyoto University, priority 2015, dated 2018).
Some entries share one result that the patent states for a list of compounds.

Experiments:
EGFR (T790M, L858R) = target: T1, EGFR (T790M, L858R) (Homo sapiens, UniProt P00533, L858R/T790M); assay: EGFR Tyrosine Kinase Inhibiting Activity Measurement 1 (ADP-Glo), DM; assay type: biochemical
T1 construct: purchased Promega V5324
Description: (§1) The measurement was carried out according to the Promega protocol applications guide. That is, a buffer solution (40 mM Tris-HCl, pH 7.5, 20 mM MgCl2, 50 μM DTT and 0.1 mg/mL BSA) was used as a dilute solution. The concentration of each compound started at 100 μM (the final concentration, including 1% DMSO) with 5-fold dilutions with the buffer solution. Thus, ten concentrations of each compound were prepared. The initial concentration of PD158780 alone was set at 10 μM (the final concentration, including 1% DMSO) but it was prepared in the same manner as the compound group. Then, 2 μL of each concentration of each compound thus obtained was added to each well of a 384-well plate. Furthermore, 4 μL (20 ng) of an EGFR Kinase Buffer that came with each EGFR Kinase Enzyme System was added to each well, which then was incubated at room temperature for ten minutes. Subsequently, 4 μL of mixed solution of ATP (10 μM) and Poly(Glu, Tyr) (2 μg) substrate was added to each well, which then was incubated at room temperature for one hour. Then, 10 μL of ADP-Glo™ Reagent (ADP-Glo™ Kinase Assay, Promega) was added to each well, which then was reacted at room temperature for 40 minutes. […] From the data thus obtained, dose-response curves and IC50 were calculated using GraphPad Prism 5 (GraphPad Software, Inc.).

EGFR (L858R) = target: T2, EGFR (L858R) (Homo sapiens, UniProt P00533, L858R); assay: EGFR Tyrosine Kinase Inhibiting Activity Measurement 1 (ADP-Glo), L858R; assay type: biochemical
T2 construct: purchased Promega V5322
Description: as §1

Fc1ccc(Nc2ncnc3cnc(NCCN4CCOCC4)cc23)cn1 [Compound H3, N^4-(6-Fluoropyridin-3-yl)-N^6-(2-morpholinoethyl)pyrido[3,4-d]pyrimidin-4,6-diamine]
binding affinity to the L858R/T790M-mutated EGFR (DM) (in words) (EGFR (T790M, L858R)): no binding affinity
binding affinity to the L858R-mutated EGFR (in words) (EGFR (L858R)): relatively high binding affinity
